Measured values taken from paper PMC11520850.
No constants are given. Whether binding was seen depends on the method and setting. Binding seen in cells or lysates may run through a third protein. Some entries that bind do so weakly or less than the wild type.

Chains of the proteins cited; added tags and fusions are not shown.
UniProt Q3KR59: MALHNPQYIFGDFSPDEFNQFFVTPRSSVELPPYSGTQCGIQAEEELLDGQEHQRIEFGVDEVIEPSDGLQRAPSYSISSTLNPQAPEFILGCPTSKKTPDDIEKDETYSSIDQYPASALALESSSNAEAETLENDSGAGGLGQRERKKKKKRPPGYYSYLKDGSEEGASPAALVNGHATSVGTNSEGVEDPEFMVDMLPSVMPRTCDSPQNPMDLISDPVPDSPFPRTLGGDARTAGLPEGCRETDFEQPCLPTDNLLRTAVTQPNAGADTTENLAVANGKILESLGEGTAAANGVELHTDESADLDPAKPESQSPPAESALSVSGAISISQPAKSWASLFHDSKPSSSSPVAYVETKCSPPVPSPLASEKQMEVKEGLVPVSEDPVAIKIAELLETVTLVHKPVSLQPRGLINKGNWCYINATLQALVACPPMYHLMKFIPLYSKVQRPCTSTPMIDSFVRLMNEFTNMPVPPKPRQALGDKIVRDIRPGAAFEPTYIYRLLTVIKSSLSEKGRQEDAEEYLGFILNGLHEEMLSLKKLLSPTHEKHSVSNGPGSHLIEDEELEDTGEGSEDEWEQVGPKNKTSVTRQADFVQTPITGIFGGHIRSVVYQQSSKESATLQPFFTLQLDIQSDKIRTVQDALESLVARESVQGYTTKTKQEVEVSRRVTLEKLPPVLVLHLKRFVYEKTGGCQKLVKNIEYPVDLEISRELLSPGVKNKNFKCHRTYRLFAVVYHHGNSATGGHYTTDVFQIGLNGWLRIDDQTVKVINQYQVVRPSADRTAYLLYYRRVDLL
UniProt P62961: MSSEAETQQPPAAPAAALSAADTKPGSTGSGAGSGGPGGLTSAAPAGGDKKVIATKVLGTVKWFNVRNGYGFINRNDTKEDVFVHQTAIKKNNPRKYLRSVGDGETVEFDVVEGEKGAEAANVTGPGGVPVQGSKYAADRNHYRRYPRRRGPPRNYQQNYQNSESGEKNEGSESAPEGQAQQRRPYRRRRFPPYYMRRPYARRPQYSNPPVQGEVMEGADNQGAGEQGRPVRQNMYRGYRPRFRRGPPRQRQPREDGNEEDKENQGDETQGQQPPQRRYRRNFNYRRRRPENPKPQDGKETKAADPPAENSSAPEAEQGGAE

Assays:
[1] = molecular target: Ubiquitin-specific peptidase 10 (rat (endogenous in PC12)) (UniProt Q3KR59); assay: co-IP; PC12 cell lysate, precleared, immunoprecipitated with anti-USP10 or IgG overnight at 4°C, protein A/G plus agarose; blots with anti-USP10 and anti-YBX1
[2] = molecular target: Recombinant glutathione transferase-USP10 (UniProt Q3KR59); assay: pull-down; GST-USP10 or GST on glutathione Sepharose 4B microspheres added to total lysate of PC12 cells, overnight at 4°C; blots with anti-USP10 and anti-YBX1; only the target purified

- binding [1]: binds
- binding [2]: binds
Substance: Y-box binding protein-1 (from UniProt P62961 1-322)
